PubChem BioAssay AID1159578 | Peter MacCallum Cancer Centre – 2015

Test: 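Genome-wide hunt for genes controlling movement of lymphatic endothelial cells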 (primary screen)
Cell system: human lymphatic endothelial cells
Reagent: siRNA pool against human genes, 40 nM
Timing: 48 h after transfection
Read-out: 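High-content imaging of dye-stained cells in a scratch assay measures filled wound area and nuclei per well; duplicate means given as ratio to mock and robust z-score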
Reading the numbers: migration robust z-score: higher = faster migration into the scratch; nuclei per well: higher = more cells in the well
Call rule: 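Migration changed when robust z exceeds 2 or falls below -2 and mean nuclei number is at least 3300; otherwise not called changed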
Calls: active = migration changed; inactive = no migration change, or too few cells
The whole screen tested about 18,000 reagents; this is a random part of them. Over the whole deposit, about 1,030 (5.7%) were called active. 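Inactive calls also include pools with fewer than 3300 nuclei, whose migration was not assessed.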 Raw values vary from plate to plate and are shown uncorrected. A number with no mark means an inactive call. Further read-outs or replicates are left out here.

After knock-down of ERMN (ermin), the screen gave migration robust z-score -1.17; nuclei per well, duplicate mean 5055. After knock-down of CCN5 (cellular communication network factor 5) the results were migration robust z-score -1.19; nuclei per well, duplicate mean 6282. Silencing of CTNNB1 (catenin beta 1) gave: migration robust z-score -0.94; nuclei per well, duplicate mean 6122. Against COPS7B (COP9 signalosome subunit 7B), the entry reads migration robust z-score -0.02; nuclei per well, duplicate mean 6486. After knock-down of RMP64 (ribonuclease MRP subunit p64), the record shows migration robust z-score -0.56; nuclei per well, duplicate mean 3392. ARL3 (ARF like GTPase 3) showed migration robust z-score 1.24; nuclei per well, duplicate mean 6492.

After knock-down of RNASE6 (ribonuclease A family member 6), the screen gave migration robust z-score -0.26; nuclei per well, duplicate mean 5834. Against CUL4B (cullin 4B), the entry reads migration robust z-score 0.31; nuclei per well, duplicate mean 5270.

A few values from above.
Value for RNASE6 (ribonuclease A family member 6) under “nuclei per well, duplicate mean”: 5834
Under “migration robust z-score”, CUL4B (cullin 4B) shows 0.31

More entries follow:
After knock-down of TMEM82 (transmembrane protein 82), the screen gave migration robust z-score -0.56; nuclei per well, duplicate mean 7000. MAPRE1 (microtubule associated protein RP/EB family member 1) showed migration robust z-score 1.1; nuclei per well, duplicate mean 6144. LZIC (leucine zipper and CTNNBIP1 domain containing) gave migration robust z-score 0.16; nuclei per well, duplicate mean 6244. APPBP2 (amyloid beta precursor protein binding protein 2) scored migration robust z-score -1.03; nuclei per well, duplicate mean 5062. After knock-down of PROK1 (prokineticin 1), the record shows migration robust z-score 0.72; nuclei per well, duplicate mean 6408. Against RAG2 (recombination activating 2), the values are migration robust z-score -0.57; nuclei per well, duplicate mean 5788.
